Patent publication US20060030524A1, “Treatment of systemic lupus erythematosus by down-regulating the autoimmune response to autoantigens” (Yeda Research and Development Co. Ltd., priority 1998, published 2006)

Chains of the proteins cited; added tags and fusions are not shown. A line that says so, or that is headed by a name, gives the form on record, which may keep a tag or linker.
UniProt P02340, whole entry: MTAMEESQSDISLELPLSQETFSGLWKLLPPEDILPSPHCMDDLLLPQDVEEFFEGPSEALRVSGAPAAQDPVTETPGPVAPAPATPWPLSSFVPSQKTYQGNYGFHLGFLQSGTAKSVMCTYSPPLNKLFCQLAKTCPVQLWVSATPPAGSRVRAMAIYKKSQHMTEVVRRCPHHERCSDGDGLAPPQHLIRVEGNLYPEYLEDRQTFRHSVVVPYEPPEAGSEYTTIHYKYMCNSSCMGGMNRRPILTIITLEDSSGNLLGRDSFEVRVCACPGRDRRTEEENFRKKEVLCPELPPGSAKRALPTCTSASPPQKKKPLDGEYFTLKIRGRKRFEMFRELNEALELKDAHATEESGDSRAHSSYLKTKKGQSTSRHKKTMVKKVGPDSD
IDI-2 monoclonal antibody (VH/VL) (Mus musculus), one chain, as listed by the source, chain 1 of 2: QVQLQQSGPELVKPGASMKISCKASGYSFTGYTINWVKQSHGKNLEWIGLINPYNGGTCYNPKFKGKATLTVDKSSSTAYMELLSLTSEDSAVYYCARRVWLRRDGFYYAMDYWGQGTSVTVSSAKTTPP
IDI-1 monoclonal antibody (VH/VL) (Mus musculus), one chain, as listed by the source, chain 1 of 2: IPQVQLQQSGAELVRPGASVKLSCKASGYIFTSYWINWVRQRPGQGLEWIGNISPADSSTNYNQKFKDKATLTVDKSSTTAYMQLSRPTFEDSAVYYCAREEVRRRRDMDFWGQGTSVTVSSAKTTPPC
IDI-1 monoclonal antibody (VH/VL) (Mus musculus), one chain, as listed by the source, chain 2 of 2: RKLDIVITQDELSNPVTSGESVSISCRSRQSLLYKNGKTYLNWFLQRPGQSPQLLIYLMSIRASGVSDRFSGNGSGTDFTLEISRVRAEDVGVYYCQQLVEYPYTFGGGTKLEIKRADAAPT
IDI-2 monoclonal antibody (VH/VL) (Mus musculus), one chain, as listed by the source, chain 2 of 2: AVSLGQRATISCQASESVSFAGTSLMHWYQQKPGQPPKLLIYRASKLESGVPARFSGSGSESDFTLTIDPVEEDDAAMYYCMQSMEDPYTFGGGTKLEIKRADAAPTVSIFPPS

Assays:
Assay in all cases: EMSA
[1] = tested on: IDI-1 monoclonal antibody (VH/VL) (Mus musculus); settings: bound less well than dG; purified native protein; protein details: hybridoma mAb, variable regions only listed; single-stranded DNA
p53 (Mus musculus) = p53 (Mus musculus) (UniProt P02340); settings: bound less well than dG; purified recombinant protein; protein details: expressed in E. coli BL21(DE3); single-stranded DNA
[2] = tested on: IDI-2 monoclonal antibody (VH/VL) (Mus musculus); settings: bound less well than dG; purified native protein; protein details: hybridoma mAb, variable regions only listed; single-stranded DNA

Measured: binding result

AAAAAAAAAAAAAAAAAAAA [oligo dA 20-mer]
binds more weakly: [1] | p53 (Mus musculus) | [2]

TTTTTTTTTTTTTTTTTTTT [oligo dT 20-mer]
binds more weakly: [1] | p53 (Mus musculus) | [2]

Weaker means in comparison with the reference protein, sequence or condition of that experiment. For part of these data: For at least one entry, the source does not settle the construct or the ends of the probe.
